The supplement of paper PMC10735217
Counter-ions that a name gives are not always drawn. The list shows a part of the results. Single values are uncertain here, since repeats match poorly.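 The human kidney-derived cells carry a stably integrated construct of eight TEAD-binding elements driving luciferase, read by luminescence in a drug-repurposing library screen. A compound counts as a hit when its signal is more than five robust Z scores above the plate mean.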

Test system: HEK293A TEAD-LUC reporter
Assay: TEAD-luciferase reporter activity (YAP activation), robust Z score vs plate; higher = stronger YAP/TEAD activation
Details: 24 h

Structure (SMILES)	TEAD-luciferase reporter activity (compound concentration: 200 nM)	TEAD-luciferase reporter activity (compound concentration: 2 uM)	TEAD-luciferase reporter activity (compound concentration: 10 uM)
Cc1cccc(N2CCN(CCc3ccc4ccccc4n3)CC2)c1	inactive: 1.34	inactive: -1.45	inactive: -0.21
Cc1nc(-c2cc(C(=O)N3CCC(c4ccc(C#N)cc4)CC3)c(C)cc2C2CCC2)n[nH]1	inactive: -0.624	inactive: -0.649	inactive: -1.68
CNC[C@@H](O)c1cccc(O)c1 [phenylepherine CDT]		inactive: -0.171	
CNC[C@@H](O)c1cccc(O)c1 [phenylepherine CDT, SCOLR]	inactive: -2.46		inactive: 0.843
CNC1C(O)C(OC2C(N)CC(N)C(OC3OC(CN)=CCC3N)C2O)OCC1(C)O (configuration not stated) [pentisomicin]	inactive: -1.1		active: 5.34
Clc1cc(Cl)c(OCC#CI)cc1Cl	inactive: -0.0317	inactive: 0.571	inactive: 2.2
CN(CCC(Oc1ccc(C(F)(F)F)cc1)c1ccccc1)CC(=O)O (configuration not stated)	inactive: 0.606	inactive: -1.85	inactive: -1.97
CCCN(CC)C(CC)C(=O)Nc1c(C)cccc1C (configuration not stated) [Etidocaine hydrochloride]	inactive: -0.147	inactive: -0.42	inactive: 2.93
COc1cccc2cc(-c3nc([C@H]4CC[C@H](C(=O)O)CC4)n4ncnc(N)c34)[nH]c12	inactive: -0.427	inactive: -0.781	inactive: 0.786
CC(=O)Nc1c(I)c(C(=O)N[C@H]2C(O)O[C@H](CO)[C@@H](O)[C@@H]2O)c(I)c(N(C)C(C)=O)c1I (some centres not stated) [metrizamide]	active: 6.6	inactive: 0.824	inactive: -1.4
COc1ccc(CC(=O)NC2CCN(c3ccc4ncc(-c5cccc(C(F)(F)F)c5)n4n3)CC2)cc1	inactive: -0.461		inactive: 1.53
CN(C)CCSC(=O)N1c2ccccc2C(C)(C)c2ccccc21 [botiacrine]	inactive: 3.25	inactive: 1.5	inactive: 0.612
CC(C)=CC[C@H](O)C1=CC(=O)c2c(O)ccc(O)c2C1=O	inactive: 0.749	inactive: -0.735	inactive: -2.18
CC1=Nc2ccc(Cl)cc2S(=O)(=O)N1	inactive: 1.85		inactive: -0.243
CC1=Nc2ccc(Cl)cc2S(=O)(=O)N1 [Diazoxide]		inactive: -0.85	
CC(C)NCC(O)COc1cccc2ccccc12 (configuration not stated)	inactive: -0.866		inactive: -0.96

Reprinted at random: 2 entries already listed
Structure (SMILES)	TEAD-luciferase reporter activity (compound concentration: 200 nM)	TEAD-luciferase reporter activity (compound concentration: 2 uM)	TEAD-luciferase reporter activity (compound concentration: 10 uM)
CCCN(CC)C(CC)C(=O)Nc1c(C)cccc1C (configuration not stated) [Etidocaine hydrochloride]	inactive: -0.147	inactive: -0.42	inactive: 2.93
Cc1nc(-c2cc(C(=O)N3CCC(c4ccc(C#N)cc4)CC3)c(C)cc2C2CCC2)n[nH]1	inactive: -0.624	inactive: -0.649	inactive: -1.68

Following part:

Structure (SMILES)	TEAD-luciferase reporter activity (compound concentration: 200 nM)	TEAD-luciferase reporter activity (compound concentration: 2 uM)	TEAD-luciferase reporter activity (compound concentration: 10 uM)
CC(C)NCC(O)COc1cccc2ccccc12 (configuration not stated) [propanolol]		inactive: 0.246	
CC(C)OP(=O)(COC(CF)Cn1cnc2c(N)ncnc21)OC(C)C (configuration not stated)	inactive: -0.387	inactive: -0.204	inactive: -0.403
CC1(C)[C@H]2CC[C@@H](CNC(=O)c3ccc(Cl)cc3)[C@@H]1C2	inactive: -1.64		inactive: 0.39
COc1cc2nc(N3CCN(C(=O)C4CCCO4)CC3)nc(N)c2cc1OC (configuration not stated) [Terazosin]	inactive: -2.09		inactive: -1.39
COc1cc2nc(N3CCN(C(=O)C4CCCO4)CC3)nc(N)c2cc1OC (configuration not stated) [Terazosin hydrochloride]		inactive: -1.74	
OCCOc1ccc(/C(=C(/CCCl)c2ccccc2)c2ccccc2)cc1 [Ospemifene]	inactive: -1.17	inactive: -1.73	inactive: -0.996
OC(CCCN1CCCCC1)(c1ccccc1)c1ccccc1 [Difenidol hydrochloride]	inactive: 0.0821		inactive: 0.0555
OC(CCCN1CCCCC1)(c1ccccc1)c1ccccc1 [Diphenidol hydrochloride]		inactive: -1.34	
COc1ccc2c(c1)c(CC(=O)O)c(C)n2C(=O)/C=C/c1ccccc1	inactive: -1.54	inactive: -0.77	inactive: 0.868
CC(C)CC(=O)Nc1cncc(-c2ccc3[nH]nc(-c4nc5cncc(-c6cccc(F)c6)c5[nH]4)c3c2)c1	inactive: 0.0438	active: 26.5	active: 10.1
CC1OC2(CCN(C)CC2)CC1=O (configuration not stated)	inactive: 2.01	inactive: -1.51	inactive: 2.11
NC(=O)CC(c1ccccc1)N1C(=O)c2ccccc2C1=O (configuration not stated)	inactive: -0.742	inactive: -0.628	inactive: -1.08
CC(C)=CCC/C(C)=C/CC/C(C)=C/CN1CCN(Cc2ccc3c(c2)OCO3)CC1	inactive: -0.6	inactive: 3.14	inactive: -1.74
Cn1nnnc1SCC1=C(C(=O)[O-])N2C(=O)[C@@H](NC(=O)[C@H](O)c3ccccc3)[C@H]2SC1	inactive: 4.22		inactive: 1.94
C[C@H]1Cc2ccccc2N1C(=O)Cc1nc(N2CCOCC2)cc(=O)[nH]1	inactive: -0.966	inactive: -1.13	inactive: -1.1
CNS(=O)(=O)c1cc(OC)c(OC)c(C(=O)NCc2cccs2)c1	inactive: 0.448	inactive: -0.307	inactive: -0.407
